Test results as given in US20160115540A1, “PRODRUGS AND DRUGS” (Biogen MA Inc., priority 2013, published 2016).
Structures can show the parent of a compound that is named as a salt. At least one compound was matched to its structure with a doubt left.

Tests used:
spleen = test: Transcriptional profiling on Affymetrix GeneChips, single dose, naïve mice: spleen; type: in vivo, C57BL/6 mice; details: 100MMF-vs-Veh, 12 h
Procedure: Treated mice were sacrificed at 2, 7, or 12 hours. Tissues (liver, spleen, kidney, jejunum, cortex, hippocampus, striatum and whole blood) were collected and analyzed by transcriptional profiling on mouse Affymetrix GeneChips.
Tissues (liver, spleen, kidney, jejunum, cortex, hippocampus, striatum and whole blood) were collected and analyzed by transcriptional profiling on mouse Affymetrix GeneChips.
(§1) Animals were exposed to CO2 and whole blood collected via cardiac puncture. Two 100 μl aliquots of whole blood were collected in 1.5 mL microcentrifuge tubes and snap frozen in liquid nitrogen. Peripheral (liver, spleen, kidney and jejunum) and CNS brain (cerebellum, hippocampus, striatum and cortex) tissues were harvested and snap frozen in liquid nitrogen, with special care taken to collect tissues of similar size and from the same location. All samples were stored at −80° C. until RNA extraction was conducted.
(§2) For RNA preparation, frozen tissues were placed in 2 mL RNAse-free 96-well blocks with 1.5 mL QIAzol Lysis Reagent (QIAgen) and a 3.2 mm stainless steel bead (BioSpec Products, Bartlesville, Okla.). Tissues were disrupted for four cycles of 45 seconds in a Mini-Beadbeater (Biospec Products). RNA was extracted in chloroform and the aqueous phase was mixed with an equal volume of 70% ethanol. […]

NK cells = test: Flow cytometry of NK cell surface markers (MFI) in naïve mice; type: in vivo, C57Bl/6 mice; details: 12 hr after 100 mpk PO
Text: Protein expression is quantified by mean fluorescent intensity (MFI).
12-hours post-dose, mice were sacrificed and blood, spleen, and inguinal lymph node were collected for analysis by flow cytometry.
Transcriptional differences in NK cell markers were confirmed at the protein level by flow cytometry. […] Protein expression was quantified by mean fluorescent intensity (MFI). […] 12-hours post-dose, mice were sacrificed and blood, spleen, and inguinal lymph node (iLN) were collected for analysis by flow cytometry.

spinal cord = test: Transcriptional profiling, multi-dosing regimen, naïve mice: spinal cord; type: in vivo
Procedure: (§3) In vivo, DMF is rapidly metabolized to monomethyl fumarate (MMF). […] Animals were exposed to CO2 and whole blood collected via cardiac puncture. Two 100 μl aliquots of whole blood were collected in 1.5 mL microcentrifuge tubes and snap frozen in liquid nitrogen. Peripheral (liver, spleen, kidney and jejunum) and CNS brain (cerebellum, hippocampus, striatum and cortex) tissues were harvested and snap frozen in liquid nitrogen, with special care taken to collect tissues of similar size and from the same location. All samples were stored at -80° C. until RNA extraction was conducted. For RNA preparation, frozen tissues were placed in 2 mL RNAse-free 96-well blocks with 1.5 mL QIAzol Lysis Reagent (QIAgen) and a 3.2 mm stainless steel bead (BioSpec Products, Bartlesville, Okla.). Tissues were disrupted for four cycles of 45 seconds in a Mini-Beadbeater (Biospec Products). RNA was extracted in chloroform and the aqueous phase was mixed with an equal volume of 70% ethanol. Extracted RNA was applied to RNeasy 96 plates and purified by the spin method according to the manufacturer's protocol (RNeasy 96 Universal Tissue Protocol, QIAgen, Hilden Germany). […]

whole blood = test: Transcriptional profiling on Affymetrix GeneChips, single dose, naïve mice: whole blood; type: in vivo, C57BL/6 mice; details: 100MMF-vs-Veh, 7 h
Procedure: Treated mice were sacrificed at 2, 7, or 12 hours. Tissues (liver, spleen, kidney, jejunum, cortex, hippocampus, striatum and whole blood) were collected and analyzed by transcriptional profiling on mouse Affymetrix GeneChips. […] While the experiments were performed in mice, the human homolog of the identified murine gene transcript is included in the tables. Additional genes that were identified in the study are provided in APPENDIX A, filed herewith on even date, the contents of which are herein incorporated by reference in their entirety. Additional studies are described in the Examples, and genes identified in the studies are provided in […], and APPENDIX E filed herewith on even date, the contents of each of which are herein incorporated by reference in their entirety. […] Tissues (liver, spleen, kidney, jejunum, cortex, hippocampus, striatum and whole blood) were collected and analyzed by transcriptional profiling on mouse Affymetrix GeneChips. […] Animals were exposed to CO2 and whole blood collected via cardiac puncture. Two 100 μl aliquots of whole blood were collected in 1.5 mL microcentrifuge tubes and snap frozen in liquid nitrogen. […] RNA integrity was assessed using the HT RNA reagent kit (Part number 760410, Caliper Life Sciences, Hopkinton, Mass.) using a LabChip GX (PerkinElmer, Waltham, Mass.). […]

brain = test: Transcriptional profiling, multi-dosing regimen, naïve mice: brain; type: in vivo
Procedure: as §3

cerebellum = test: Transcriptional profiling on Affymetrix GeneChips, single dose, naïve mice: cerebellum; type: in vivo, C57BL/6 mice; details: 100MMF-vs-Veh, 7 h
Procedure: In vivo, DMF is rapidly metabolized to monomethyl fumarate (MMF).
as §1
as §2, with “ethanol. Extracted RNA was applied to RNeasy 96 plates and purified by the spin method according to the manufacturer's protocol (RNeasy 96 Universal Tissue Protocol, QIAgen, Hilden Germany).” for “ethanol.”

COC(=O)/C=C/C(=O)O [MMF, monomethyl fumarate]
genes in differential expression gene list (spleen): None | Effects on NK cells in the spleen (NK cells): not observed | DEPP gene induction (mRNA) (spinal cord): not with MMF | differentially expressed genes (whole blood): None | DEPP gene induction (mRNA) (brain): not with MMF | differentially expressed genes (cerebellum): None
